Measured values published in article PMC9456173.
No constants are given. Whether binding was seen depends on the method and setting. In cells and extracts the contact can be indirect. Some results given as binding are weak or reduced against the parent protein; the word gives no strength.

Chains of the proteins cited; added tags and fusions are not shown.
UniProt P34972: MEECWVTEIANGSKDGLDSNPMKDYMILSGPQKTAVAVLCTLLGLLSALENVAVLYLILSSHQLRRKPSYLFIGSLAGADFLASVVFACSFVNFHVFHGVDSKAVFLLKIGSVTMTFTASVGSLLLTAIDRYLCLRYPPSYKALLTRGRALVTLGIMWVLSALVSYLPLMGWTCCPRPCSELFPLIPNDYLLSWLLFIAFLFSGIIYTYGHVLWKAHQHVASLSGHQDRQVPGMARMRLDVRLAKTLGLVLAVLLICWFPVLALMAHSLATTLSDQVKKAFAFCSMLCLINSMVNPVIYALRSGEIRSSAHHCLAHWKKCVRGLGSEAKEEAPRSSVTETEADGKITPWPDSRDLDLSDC
UniProt P08908: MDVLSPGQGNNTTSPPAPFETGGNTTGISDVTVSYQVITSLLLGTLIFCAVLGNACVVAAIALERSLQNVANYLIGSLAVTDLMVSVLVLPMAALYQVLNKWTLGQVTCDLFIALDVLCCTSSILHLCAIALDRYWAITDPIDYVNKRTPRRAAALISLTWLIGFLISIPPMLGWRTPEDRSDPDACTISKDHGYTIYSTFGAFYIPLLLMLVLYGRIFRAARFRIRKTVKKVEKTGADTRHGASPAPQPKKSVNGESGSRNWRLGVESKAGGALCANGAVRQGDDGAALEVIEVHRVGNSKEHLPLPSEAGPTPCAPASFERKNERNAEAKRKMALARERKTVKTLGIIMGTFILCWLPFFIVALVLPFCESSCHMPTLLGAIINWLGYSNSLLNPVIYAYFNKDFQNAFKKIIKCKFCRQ
UniProt Q64264: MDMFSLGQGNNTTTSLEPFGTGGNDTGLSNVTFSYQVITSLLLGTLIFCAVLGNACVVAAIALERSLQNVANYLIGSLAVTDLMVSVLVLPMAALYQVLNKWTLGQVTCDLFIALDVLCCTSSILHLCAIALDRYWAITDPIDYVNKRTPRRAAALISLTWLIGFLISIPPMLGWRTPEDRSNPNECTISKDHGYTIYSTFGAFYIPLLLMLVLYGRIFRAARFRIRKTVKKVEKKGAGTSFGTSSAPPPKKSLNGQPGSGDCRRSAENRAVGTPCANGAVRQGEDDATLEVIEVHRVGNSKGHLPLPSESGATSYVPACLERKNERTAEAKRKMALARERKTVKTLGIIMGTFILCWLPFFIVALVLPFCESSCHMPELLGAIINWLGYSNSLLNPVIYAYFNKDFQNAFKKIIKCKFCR
UniProt P19327: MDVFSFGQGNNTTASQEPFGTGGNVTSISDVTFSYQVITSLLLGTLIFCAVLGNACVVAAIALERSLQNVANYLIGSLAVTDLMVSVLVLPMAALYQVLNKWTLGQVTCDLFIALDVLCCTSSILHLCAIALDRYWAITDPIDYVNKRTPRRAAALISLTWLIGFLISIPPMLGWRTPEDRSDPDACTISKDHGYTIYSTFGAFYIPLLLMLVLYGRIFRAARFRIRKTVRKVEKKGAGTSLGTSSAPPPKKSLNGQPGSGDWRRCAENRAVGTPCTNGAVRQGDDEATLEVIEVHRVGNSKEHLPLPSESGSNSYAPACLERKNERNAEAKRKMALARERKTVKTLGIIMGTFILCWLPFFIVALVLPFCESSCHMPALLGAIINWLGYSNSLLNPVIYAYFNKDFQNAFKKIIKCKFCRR
UniProt P32121: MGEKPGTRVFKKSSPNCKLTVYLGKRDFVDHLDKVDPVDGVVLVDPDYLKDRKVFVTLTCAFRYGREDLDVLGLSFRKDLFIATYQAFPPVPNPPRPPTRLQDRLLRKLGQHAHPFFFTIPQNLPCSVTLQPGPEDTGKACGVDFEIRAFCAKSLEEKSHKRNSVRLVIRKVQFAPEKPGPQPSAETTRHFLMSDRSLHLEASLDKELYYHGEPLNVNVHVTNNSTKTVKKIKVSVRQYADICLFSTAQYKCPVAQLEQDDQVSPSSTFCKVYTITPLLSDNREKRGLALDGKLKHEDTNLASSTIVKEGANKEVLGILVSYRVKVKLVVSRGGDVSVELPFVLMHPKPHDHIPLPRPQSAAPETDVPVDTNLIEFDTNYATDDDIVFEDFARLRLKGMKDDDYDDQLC
UniProt Q92847: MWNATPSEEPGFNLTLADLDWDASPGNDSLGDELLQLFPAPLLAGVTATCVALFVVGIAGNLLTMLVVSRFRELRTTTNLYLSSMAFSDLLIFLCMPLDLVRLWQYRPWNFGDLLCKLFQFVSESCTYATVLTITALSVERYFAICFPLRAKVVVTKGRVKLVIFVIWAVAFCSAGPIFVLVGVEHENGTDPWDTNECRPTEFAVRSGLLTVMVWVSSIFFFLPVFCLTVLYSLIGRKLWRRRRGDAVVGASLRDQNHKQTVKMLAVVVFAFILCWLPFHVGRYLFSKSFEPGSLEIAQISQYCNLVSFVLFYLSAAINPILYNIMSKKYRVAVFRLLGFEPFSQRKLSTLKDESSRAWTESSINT
UniProt P47936: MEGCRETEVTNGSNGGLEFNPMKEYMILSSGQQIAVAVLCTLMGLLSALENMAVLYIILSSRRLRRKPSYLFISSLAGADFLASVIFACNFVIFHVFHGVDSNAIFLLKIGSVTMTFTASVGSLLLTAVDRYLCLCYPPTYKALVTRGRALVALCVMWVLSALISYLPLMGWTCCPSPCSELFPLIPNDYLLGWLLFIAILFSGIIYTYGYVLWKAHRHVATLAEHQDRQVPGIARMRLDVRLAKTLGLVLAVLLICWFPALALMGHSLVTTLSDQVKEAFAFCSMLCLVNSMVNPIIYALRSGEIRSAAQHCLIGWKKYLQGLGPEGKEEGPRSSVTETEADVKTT

Experiments:
[1] = molecular target: cannabinoid CB2 receptor fused to YFP (human) (UniProt P34972); assay: FRET or BRET; β-arrestin 2 recruitment by BRET in HEK-293T cells expressing β-arrestin 2-RLuc, CB2R-YFP and 5HT1AR (CB2-5HT1A-Hets); stimulated with 200 nM serotonin, vehicle pre-treatment; read 25 min after treatment
[2] = molecular target: cannabinoid CB2 receptor fused to YFP (human) (UniProt P34972); assay: condition: only cells pre-treated with 200 nM CBD or 200 nM CBG; FRET or BRET; β-arrestin 2 recruitment by BRET in HEK-293T cells expressing β-arrestin 2-RLuc, CB2R-YFP and 5HT1AR (CB2-5HT1A-Hets); pre-treated with 200 nM CBD or 200 nM CBG, then stimulated with 200 nM serotonin
[3] = molecular target: cannabinoid CB2 receptor fused to YFP (human) (UniProt P34972); assay: FRET or BRET; β-arrestin 2 recruitment by BRET in HEK-293T cells expressing β-arrestin 2-RLuc (1 μg cDNA) and one receptor-YFP (1.5 μg cDNA); stimulated with 200 nM JWH-133 (CB2R, read 25 min after treatment) or 200 nM serotonin (5HT1AR, read 7 min after treatment); pre-treated with vehicle, 200 nM CBD or 200 nM CBG (both partially blocked the agonist's effect)
[4] = molecular target: serotonin 5HT1A receptor fused to YFP (human) (UniProt P08908); assay: as above
[5] = molecular target: serotonin 5HT1A receptor fused to Renilla luciferase (human) (UniProt P08908); assay: FRET or BRET; BRET saturation in HEK-293T cells: constant cDNA for 5HT1AR-RLuc (1.5 μg; 0.75 μg in the negative control) and increasing cDNA for the YFP fusion (CB2R-YFP 0.2 to 4 μg; GHSR-1a-YFP 0.2 to 2 μg); vehicle pre-treatment 30 min; 5 μM coelenterazine H; HBSS with 0.1% glucose, pH 7.4
[6] = molecular target: serotonin 5HT1A receptor, endogenous in mouse primary striatal neurons (mouse (endogenous in primary striatal neurons)) (UniProt Q64264); assay: proximity ligation; in situ PLA (Duolink) on fixed, permeabilised mouse primary striatal neurons with mouse anti-CB2R and rabbit anti-5HT1AR antibodies; normoxia in complete medium or glucose-oxygen deprivation for 4 h; pre-treated with vehicle, 200 nM CBD or 200 nM CBG for 30 min
[7] = molecular target: serotonin 5HT1A receptor, endogenous in Wistar rat brain (rat (endogenous in Wistar rat brain sections)) (UniProt P19327); assay: proximity ligation; in situ PLA (Duolink) on fixed cortical sections of Wistar rat brains taken 1, 7 or 30 days after hypoxia-ischemia (vehicle or CBD 1 mg/kg) or sham surgery

Q: Which binding [1] does the source give for “β-arrestin 2 fused to Renilla luciferase (from UniProt P32121 1-409)” here?
A: binds

Q: And the binding [2]?
A: no binding

Q: And the binding [3]?
A: binds

Q: What about the binding [4] of the same molecule?
A: binds

Q: For “GHS-R1a receptor fused to YFP (from UniProt Q92847 1-366)”, which binding [5] is on record?
A: no binding

Q: How did the binding [6] turn out when “cannabinoid CB2 receptor, endogenous in mouse primary striatal neurons (from UniProt P47936 1-347)” was run?
A: binds

B1: cannabinoid CB2 receptor, endogenous in Wistar rat brain (receptor, UniProt Q9QZN9 1-360)
chain: MAGCRELELTNGSNGGLEFNPMKEYMILSDAQQIAVAVLCTLMGLLSALENVAVLYLILSSQRLRRKPSYLFIGSLAGADFLASVIFACNFVIFHVFHGVDSRNIFLLKIGSVTMTFTASVGSLLLTAVDRYLCLCYPPTYKALVTRGRALVALGVMWVLSALISYLPLMGWTCCPSPCSELFPLIPNDYLLGWLLFIAILFSGIIYTYGYVLWKAHQHVASLAEHQDRQVPGIARMRLDVRLAKTLGLVMAVLLICWFPALALMGHSLVTTLSDKVKEAFAFCSMLCLVNSMINPIIYALRSGEIRSAAQHCLTGWKKYLQGLGSEGKEEAPKSSVTETEAEVKTTTGPGSRTPGCSNC
Q: With B1 as the molecule, how does the binding [7] read?
A: binds
